Measured values taken from patent US20090026122A1, “BIOCOMPATIBLE SOLID-PHASE MICROEXTRACTION COATINGS AND METHODS FOR THEIR PREPARATION” (Janusz, priority 2002, published 2009).

Assay: Biocompatibility of coatings by XPS, atomic composition before and after exposure to human plasma
Conditions: XPS atomic composition of the reference protein itself

For Fibrinogen, the “C % (RSD < 5%)” value was 62.8%, the “N % (RSD < 5%)” value was 18.0% and the “O % (RSD < 10%)” value was 18.8%. The “S % (RSD < 15%)” value was 0.5%.
